These are yes or no findings as the source states them, for the method shown. Binding seen in cells or lysates may run through a third protein. Here binding means that the protein was enriched with, or labelled near, the bait; the list need not be complete. For some of these results: No binding means not detected with the bait. Tags and fused reporters may be left off the sequences shown. Each block holds one molecule with its values, some of them ahead of it.
Columns and labels:
[1] = molecular target: T1, ELF3-HFC (EARLY FLOWERING 3, C-terminally tagged with 6xHis-3xFlag) (A. thaliana) (UniProt O82804); assay: affinity purification with mass spectrometry; ELF3-HFC as bait from ELF3::ELF3-HFC #3 elf3-2 phyB-9 seedlings (no phyB); same tandem purification; two replicates
T1 sequence: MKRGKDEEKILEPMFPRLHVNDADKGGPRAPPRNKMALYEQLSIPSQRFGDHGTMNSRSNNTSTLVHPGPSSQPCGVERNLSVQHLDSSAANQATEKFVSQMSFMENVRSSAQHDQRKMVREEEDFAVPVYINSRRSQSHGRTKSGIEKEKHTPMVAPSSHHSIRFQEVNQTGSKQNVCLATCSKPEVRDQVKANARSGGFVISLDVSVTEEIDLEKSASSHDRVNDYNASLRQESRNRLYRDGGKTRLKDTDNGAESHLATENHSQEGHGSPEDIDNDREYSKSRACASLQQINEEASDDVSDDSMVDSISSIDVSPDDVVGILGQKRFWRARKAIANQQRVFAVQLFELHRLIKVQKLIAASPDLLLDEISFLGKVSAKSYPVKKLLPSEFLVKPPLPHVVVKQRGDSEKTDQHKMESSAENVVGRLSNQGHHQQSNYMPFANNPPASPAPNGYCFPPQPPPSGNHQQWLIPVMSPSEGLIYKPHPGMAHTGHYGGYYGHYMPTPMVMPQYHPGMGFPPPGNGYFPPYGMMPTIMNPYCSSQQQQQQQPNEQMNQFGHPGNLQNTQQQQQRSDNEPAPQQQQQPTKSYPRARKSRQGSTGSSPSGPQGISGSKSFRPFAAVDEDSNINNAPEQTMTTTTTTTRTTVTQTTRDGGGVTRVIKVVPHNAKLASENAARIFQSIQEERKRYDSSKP

By UniProt entry, the sequences of proteins in these tests, tags left out. Where a name states a change or a piece, a line headed by the entry shows the natural chain unless it says otherwise.
UniProt P43297: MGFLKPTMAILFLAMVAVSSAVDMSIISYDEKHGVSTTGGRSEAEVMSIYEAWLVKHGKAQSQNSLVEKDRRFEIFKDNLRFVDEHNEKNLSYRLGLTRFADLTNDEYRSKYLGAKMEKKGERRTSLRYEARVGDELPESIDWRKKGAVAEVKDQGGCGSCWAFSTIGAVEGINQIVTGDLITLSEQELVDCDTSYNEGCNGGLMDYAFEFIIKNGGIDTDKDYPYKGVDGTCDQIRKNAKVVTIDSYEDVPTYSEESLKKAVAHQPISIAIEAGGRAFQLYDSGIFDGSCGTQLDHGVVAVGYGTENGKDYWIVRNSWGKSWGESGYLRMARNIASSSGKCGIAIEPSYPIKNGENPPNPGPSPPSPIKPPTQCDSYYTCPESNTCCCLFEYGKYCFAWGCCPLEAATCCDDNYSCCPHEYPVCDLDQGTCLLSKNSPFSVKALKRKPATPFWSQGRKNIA
UniProt P14713: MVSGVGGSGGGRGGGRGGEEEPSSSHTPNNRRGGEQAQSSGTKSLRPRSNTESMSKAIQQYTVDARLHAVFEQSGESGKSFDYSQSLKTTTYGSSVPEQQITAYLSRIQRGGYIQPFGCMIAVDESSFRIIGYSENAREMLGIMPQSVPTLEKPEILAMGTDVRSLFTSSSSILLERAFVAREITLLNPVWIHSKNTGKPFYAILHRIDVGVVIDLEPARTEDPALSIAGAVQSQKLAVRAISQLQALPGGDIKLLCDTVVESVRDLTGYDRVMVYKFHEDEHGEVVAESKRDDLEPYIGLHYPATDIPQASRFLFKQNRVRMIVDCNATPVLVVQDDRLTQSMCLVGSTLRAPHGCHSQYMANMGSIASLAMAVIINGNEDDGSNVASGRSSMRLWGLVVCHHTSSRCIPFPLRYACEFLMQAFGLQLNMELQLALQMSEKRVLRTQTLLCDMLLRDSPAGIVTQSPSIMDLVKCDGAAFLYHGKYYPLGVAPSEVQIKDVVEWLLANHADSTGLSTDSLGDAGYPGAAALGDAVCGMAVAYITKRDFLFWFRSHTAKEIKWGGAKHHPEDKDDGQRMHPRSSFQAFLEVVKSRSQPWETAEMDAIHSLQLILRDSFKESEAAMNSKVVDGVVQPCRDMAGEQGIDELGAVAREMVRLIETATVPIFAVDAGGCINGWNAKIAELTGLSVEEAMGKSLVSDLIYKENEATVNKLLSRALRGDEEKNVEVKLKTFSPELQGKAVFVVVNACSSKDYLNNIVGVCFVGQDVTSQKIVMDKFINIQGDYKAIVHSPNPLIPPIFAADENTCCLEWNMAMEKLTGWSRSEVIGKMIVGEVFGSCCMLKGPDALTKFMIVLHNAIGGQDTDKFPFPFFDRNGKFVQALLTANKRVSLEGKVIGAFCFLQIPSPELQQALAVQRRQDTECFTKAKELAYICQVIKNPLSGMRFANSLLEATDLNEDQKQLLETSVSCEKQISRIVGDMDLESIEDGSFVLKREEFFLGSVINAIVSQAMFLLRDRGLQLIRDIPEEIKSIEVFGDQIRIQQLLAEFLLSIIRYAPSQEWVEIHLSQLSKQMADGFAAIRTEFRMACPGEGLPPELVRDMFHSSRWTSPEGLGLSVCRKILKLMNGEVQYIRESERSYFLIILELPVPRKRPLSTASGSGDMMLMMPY
UniProt O24456: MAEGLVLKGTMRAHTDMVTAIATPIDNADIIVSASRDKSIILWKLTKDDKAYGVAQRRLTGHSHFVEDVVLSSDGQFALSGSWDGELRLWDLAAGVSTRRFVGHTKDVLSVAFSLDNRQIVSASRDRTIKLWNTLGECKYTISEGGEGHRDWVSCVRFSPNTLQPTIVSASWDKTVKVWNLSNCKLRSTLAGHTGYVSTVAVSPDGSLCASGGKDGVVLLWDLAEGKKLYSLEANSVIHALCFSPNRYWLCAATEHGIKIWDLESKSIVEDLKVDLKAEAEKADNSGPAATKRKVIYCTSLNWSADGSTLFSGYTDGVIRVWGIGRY
UniProt Q94KE2: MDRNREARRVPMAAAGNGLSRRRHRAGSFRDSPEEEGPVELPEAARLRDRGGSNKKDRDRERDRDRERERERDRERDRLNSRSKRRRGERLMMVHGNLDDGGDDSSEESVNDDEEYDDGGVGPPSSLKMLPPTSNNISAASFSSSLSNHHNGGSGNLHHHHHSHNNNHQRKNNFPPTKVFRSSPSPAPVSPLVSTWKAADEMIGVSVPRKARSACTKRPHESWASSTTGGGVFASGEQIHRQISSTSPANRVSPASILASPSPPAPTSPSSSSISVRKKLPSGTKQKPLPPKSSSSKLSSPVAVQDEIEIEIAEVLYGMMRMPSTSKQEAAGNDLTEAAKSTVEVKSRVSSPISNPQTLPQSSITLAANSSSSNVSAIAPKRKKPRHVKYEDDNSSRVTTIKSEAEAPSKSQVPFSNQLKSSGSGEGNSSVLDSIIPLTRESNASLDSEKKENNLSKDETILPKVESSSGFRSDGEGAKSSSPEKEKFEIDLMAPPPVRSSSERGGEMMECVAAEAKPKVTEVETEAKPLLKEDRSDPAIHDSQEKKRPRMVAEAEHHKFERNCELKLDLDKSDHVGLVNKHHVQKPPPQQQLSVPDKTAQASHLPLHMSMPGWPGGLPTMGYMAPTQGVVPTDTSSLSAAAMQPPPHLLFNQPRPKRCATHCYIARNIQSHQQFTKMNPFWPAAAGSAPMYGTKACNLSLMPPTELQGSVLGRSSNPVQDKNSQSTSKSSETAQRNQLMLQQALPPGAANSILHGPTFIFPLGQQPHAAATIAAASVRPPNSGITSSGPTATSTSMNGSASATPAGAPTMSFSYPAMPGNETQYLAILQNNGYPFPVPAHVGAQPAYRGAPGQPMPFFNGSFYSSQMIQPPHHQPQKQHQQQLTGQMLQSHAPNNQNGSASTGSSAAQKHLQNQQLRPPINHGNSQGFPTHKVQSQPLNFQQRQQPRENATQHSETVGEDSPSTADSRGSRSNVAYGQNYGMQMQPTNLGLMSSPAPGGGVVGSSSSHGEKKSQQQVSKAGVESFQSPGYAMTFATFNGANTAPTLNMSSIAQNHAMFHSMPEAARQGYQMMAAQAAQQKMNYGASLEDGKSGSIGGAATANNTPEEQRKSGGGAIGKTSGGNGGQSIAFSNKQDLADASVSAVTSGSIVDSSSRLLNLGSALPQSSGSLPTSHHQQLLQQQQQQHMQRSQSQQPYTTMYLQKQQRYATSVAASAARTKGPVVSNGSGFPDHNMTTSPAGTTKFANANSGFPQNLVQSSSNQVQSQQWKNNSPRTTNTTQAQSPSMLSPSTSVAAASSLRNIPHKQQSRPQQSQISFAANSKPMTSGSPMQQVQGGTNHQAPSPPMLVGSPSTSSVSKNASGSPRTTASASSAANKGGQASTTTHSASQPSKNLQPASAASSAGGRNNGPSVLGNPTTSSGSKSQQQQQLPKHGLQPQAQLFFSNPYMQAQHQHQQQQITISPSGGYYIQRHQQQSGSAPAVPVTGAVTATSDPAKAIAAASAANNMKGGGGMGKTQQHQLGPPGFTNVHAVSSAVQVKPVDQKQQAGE

[2] = molecular target: T1, ELF3-HFC (EARLY FLOWERING 3, C-terminally tagged with 6xHis-3xFlag) (A. thaliana); assay: affinity purification with mass spectrometry; ELF3-HFC as bait from ELF3::ELF3-HFC #3 elf3-2 seedlings, harvested at ZT12; anti-FLAG beads, 3xFLAG peptide elution, then Talon beads; on-bead digest, LC-MS/MS; compared with GFP-HFC; two replicates; …, TOC1 and TIC also coprecipitated from the phyB-9 background
[3] = molecular target: T1, ELF3-HFC (EARLY FLOWERING 3, C-terminally tagged with 6xHis-3xFlag) (A. thaliana); assay: affinity purification with mass spectrometry; ELF3-HFC as bait from ELF3::ELF3-HFC #3 elf3-2 elf4-2 seedlings (no ELF4); same tandem purification; two replicates
[4] = molecular target: T2, ELF4-HFC (EARLY FLOWERING 4, C-terminally tagged with 6xHis-3xFlag) (A. thaliana) (UniProt O04211); assay: affinity purification with mass spectrometry; ELF4-HFC as bait from ELF4::ELF4-HFC #51 elf4-3 phyB-9 seedlings (no phyB); same tandem purification; three replicates
T2 sequence: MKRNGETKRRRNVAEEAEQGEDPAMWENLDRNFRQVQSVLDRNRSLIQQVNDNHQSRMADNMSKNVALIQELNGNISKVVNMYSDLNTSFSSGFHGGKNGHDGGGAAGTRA

[5] = molecular target: T1, ELF3-HFC (EARLY FLOWERING 3, C-terminally tagged with 6xHis-3xFlag) (A. thaliana); assay: condition: only in the elf4-2 mutant background (no ELF4); affinity purification with mass spectrometry; ELF3-HFC as bait from ELF3::ELF3-HFC #3 elf3-2 elf4-2 seedlings (no ELF4); same tandem purification; two replicates
[6] = molecular target: T1, ELF3-HFC (EARLY FLOWERING 3, C-terminally tagged with 6xHis-3xFlag) (A. thaliana); assay: affinity purification with mass spectrometry; ELF3-HFC as bait from ELF3::ELF3-HFC #3 elf3-2 seedlings, harvested at ZT12; anti-FLAG beads, 3xFLAG peptide elution, then Talon beads; on-bead digest, LC-MS/MS; compared with GFP-HFC; two replicates; …, TOC1 and TIC also coprecipitated from the phyB-9 background; remark: listed apart in the source

Molecule: protease RD21a (from UniProt P43297) (enzyme)
binding [3]: binds

Molecule: phytochrome B (from UniProt P14713 1-1172) (receptor)
binding [2]: binds

Continued, values first:

binding [1]: binds
Molecule: RACK1A (from UniProt O24456 1-327)

binding [2]: binds
Molecule: TIME FOR COFFEE (from UniProt Q94KE2 1-1550)

binding [4]: binds | binding [3]: binds | binding ([3]; record 2): binds | binding ([3]; record 3): binds | binding ([3]; record 4): binds | binding [5]: no binding | binding [6]: binds | binding ([6]; record 2): binds | binding ([6]; record 3): binds
B1: … (protein, UniProt Q9M2N5 1-696)
chain: MEVYNDDTEMRSPETQPIKETALEVYNDTAEIRSPETQPIEETALEVYNDTEMVSPETQPIKRRKKKSMVWEHFTIEAVEPNCRRAFCKGCNQSFAYSNGNKVAGTSHLKRHIFKGTCPALIHTHDNDNNPLMSTPYTPKTDTPRRRYRSQNNASPYVAFNQDKCRQEIAKMIIMHDYPLHMVQHPGFVSFVQSIQPHFDAVSFNNVQGDCVATYLAEKQNVMKSLEGIPGRFCLTLDFWTSKLTLGYVFITAHYIDSDWKIQKKLLNVLMESYPEADEALSLAVANCVSEWGLEGKLFNVTFNHPASNSAVENIRPQLCIKNPGILDGQLVIGNCVARTFGSLAKDVLEKGKDVIKNIRDSVKHVKTSESHEERFTELKEQLQVPSEKVLSLDDQTQWNTTYMMLVAASELKEVFSCLDTADPDYKKPPSAEDWRHVEALCTFLKPLFEAVSTLQSTGNPSAVTFFHEVWKTQSDLSRAIAGEDPFVTGIAKTMQEKVDKYWRDCSLVLAMAVVMDPRFKMKLVEFSFSKIFGEDAGKNIKTVDDGIHELFTEYMALPSPQNTTSEGGKADGLSDFDTYIMETTGQNLKSELDQYLDETLLPRVQEFDVLDWWKQNKLKYPTLSKMARDILSIPVSAAAFDYVFDMEPREMDEYKTSLRPETVEALICAREWLLESNASSSAAAQNASATIKSEA
